In all, about 53,000 sequences went through this assay and about 3,700 (7%) were called active.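 Rule for the calls: active = gene knockdowns whose robust z-score for IL-1 alpha signal is at least 2 or at most -2, so actives lie on both sides; inactive = the rest.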 This is one part of the list.

A short description of this test: Components of the Cytosolic LPS Sensing Pathway: Gene Identification via Genome-wide siRNA Screen.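 Note: robust z of the log signal after scaling to non-targeting control siRNA wells of the plate.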 To be noted: RAW264.7 macrophages, IL-1a HTRF, actives lie on both sides, screened at 100 nM (by protocol), cells primed 5 h with Pam3CSK4 first. The method in brief: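 Knockdown: 100 nM siRNA, 48h, RAW264.7. Stimulation: Pam3CSK4 5 h, then LipidA via TransIT-TKO 24 h. Output: supernatant IL-1a HTRF, negative-control-normalized, log robust z-score; viability by CellTiter-Glo.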
In general terms: Time-resolved FRET reads energy transfer from a long-lived donor to a nearby acceptor.
CCUUAAUCCAAACAAGUCUTT against Ncl: the z-score is inactive: 1.08.
As to CCCGGAAGACACUAAAACUTT against Gmeb1, the z-score was inactive: -0.746.
The value for GCAUAUCAACGCAGUGUCATT against Tssk5 was inactive: -1.26.
To GGCUGAAAGCCCAGAUCUUTT against Celf5 belongs inactive: -1.8.
To GGUGGAUACAGAAAGUCAUTT against F2 belongs inactive: -0.839; to GGAGCUCGUGUAAAUGCCATT against Ankrd44, inactive: 1.16; to GGCUUAUAUUCAACCAUGGTT against Elavl4, inactive: -0.776.
For GGAGGUUAAGAGAUCUCCATT against Katnbl1, the z-score was inactive: 0.55.
The value for GGAGACCCUGGUGAGAAGATT against Emid1 was inactive: 0.26; that for GUUUCCAUAUCCUUUAAGUTT against Lilr4b was inactive: 1.23; that for GGGACUUCAUGCUAAGUUUTT against Smarcd3 was inactive: 1.38.
Regarding CCACUCUGUUAUCACCGAGTT against Olfr774, the z-score is inactive: 0.431.
As to GGAAUCUCCUAGAAAUAUUTT against Cep95, the z-score is inactive: 0.91.
On to “GGACUCAUCAGAGGAUAAATT against C130026I21Rik”, for which the z-score was inactive: -1.35.
GGAAUCUAGACUUAAUUCUTT against Trp53inp1: the z-score is inactive: 0.422.
On to CGACUCCAAUCUACAGGUUTT against Ccdc130, for which the z-score was inactive: 0.693.
For the sequence GGAGAUCAUGCUCAAGAACTT against Dgke, the z-score is inactive: 0.176.
The value for CCACAAUUUGAGAACAUUUTT against Tyrp1 was inactive: -0.539; that for GCAAAGUUGGUGACGUGAUTT against Pole2 was active: -2.15.
To GGGUAACAUUAGGAGAGUUTT against N4bp2l1 belongs inactive: 0.719.
To GAAUUCCAGCUUAUUCCUUTT against Klra15 belongs inactive: 0.6.
In the case of GGCAGCCAAGAGAUUGAAUTT against Suclg2, the z-score was inactive: 1.09.
The value for GAGAUGUCCGAAAUGCCAATT against Smco4 was inactive: 1.73.
To GCUGUGUACUCUGCCCUGATT against Olfr346 belongs inactive: -0.0275; to GGUCAUGCACACUCGAAAUTT against Mrpl54, inactive: 0.831; to GGAAAGUUUGAAGAUGUGUTT against Mknk1, inactive: -0.643.
The value for CGAUCGUAUUCAAUGGAAATT against Rims2 was inactive: -0.998.
Take GCUUUGAUAGAUACUUCUGTT against Chrm2: the z-score was inactive: -0.471.
With GGUGAUAUUGUUGUACUUATT against Olfr1058, the z-score is inactive: -0.624.
The value for CCCUUUAACAGCAAUUGUATT against Pramel4 was inactive: 0.383.
In the case of GGUUGUUUGACCAACAGCUTT against Inpp5d, the z-score was inactive: -1.51.
The value for GGUGCUAAAAAUGAGCCUUTT against Urm1 was inactive: -1.66; that for GCAUUUCAAUCGCACGUUUTT against Gal3st2 was inactive: -0.893.
On to CCGUAGAAGGGUUCAACACTT against Fam151a, for which the z-score was inactive: 0.613.
The value for GCUAAGACACCGAGAGGAATT against Rassf4 was inactive: 1.67.
For GGUUUUGUUCAGAUCAGAUTT against Gemin6, the z-score was inactive: 0.346.
As to GCUACUUUGUGAAGAAACCTT against Cntrob, the z-score is inactive: -0.832.
For GCACACCUCUAUCCUUUUGTT against Pcsk9, the z-score was inactive: -1.59.
Turning to GGACAAGUCGAAGAGUGAGTT against Ing1, the z-score was active: -2.26.
For the sequence CCUAUAUUGGAGAGAUAUUTT against Serpinb6a, the z-score is inactive: 0.0211.
The value for CCAUGCCAAGUCUCUACACTT against Tmem150a was inactive: 0.0206.
To GGAAUAGGUUGGAUCACAATT against Prxl2c belongs inactive: 0.258; to GGGAUUUCUUUUUCUAGUUTT against Fgd5, inactive: -1.62; to GGCCUGGGAAGUGAACAAATT against Faah, inactive: -0.721.
GGAGCUUUCCAUAUAUAAGTT against Sgcb: the z-score is inactive: 0.175.
Regarding GCUUCAAUGUAUUUUUUGCTT against Olfr1459, the z-score is inactive: -1.83.
To GCAUCAUUACUGGAUUCCUTT against Olfr859 belongs inactive: -0.521; to GGUGCUAAUGACCUUUGAATT against Dbp, inactive: -1.5.
The value for GCUGUCACCUACAGAAAAATT against Msantd1 was inactive: -0.748.
The value for GCUCGAGAUCGAAACAUACTT against Tmed5 was inactive: -1.13.
With CCAUAAUUCCAGAACAUACTT against Hspg2, the z-score was inactive: 0.961.
To “GGAUUUUAAAGUCAUGUCATT against D130040H23Rik” belongs inactive: -1.79; to GGAUGAAGAGGUUGGAGAUTT against Cct3, inactive: -0.234.
Regarding GCCUAAGCUUGUAUGUUUGTT against Anapc2, the z-score was inactive: -0.119.
Consider GGUUCUUUGUUUCUUUCGUTT against Dcaf12l2, for which the z-score was inactive: -0.954.
The value for GGAAUCUGUCAUGUGAAUATT against Slc1a5 was inactive: -0.0766.
To GGUCACCAGUACCUAUGGATT against Bricd5 belongs active: -2.17; to CCCUAGAUGAGAAUCAUAGTT against Kdm5c, inactive: 0.52.
To GGUGGUAUGCAAGAUUACATT against Cpd belongs inactive: 0.922; to CGUGGCUUCUUUCCGCUCUTT against Mtmr4, inactive: -0.55; to GCUACAGGUCAAUGUCGUGTT against Tcte2, inactive: -1.61.
For the sequence GCUGAUACGAGGAACAGAGTT against Fmr1nb, the z-score is inactive: 0.728.
To GCCAACGUAUUUGUGGCAUTT against Olfr1183 belongs inactive: 0.983.
On to GGAUGAACCUUCUGACCAATT against Klk1b4, for which the z-score is inactive: 1.63.
The value for GGCUUUAAUGAAAUUAUGGTT against Asap2 was inactive: 1.4; that for GGGAGUCCCUGUGCUUAUATT against Arl4a was inactive: 0.458; that for GCUAGAAUGUCUCAAUACUTT against Spdl1 was inactive: -0.508.
The value for GCAGCAUGGAGUUCACUAUTT against Tapbp was inactive: -0.25.
As to CCUUUUUGAUGCCAUCGUUTT against Dclk3, the z-score was inactive: 0.844.
To GGUUCCCAAUACUAUCAGGTT against Kif26b belongs inactive: 0.209.
The value for GGUGGUGCUUAAGUCCAUCTT against Cacna1b was inactive: 0.969; that for GGAUCUUAAGUCCUAACAUTT against Tacc3 was active: -2.37.
As to GGUUUCCAGUAAGAUCUUATT against Mdn1, the z-score is active: 2.21.
For CCUGUGACGAAUUUGAGCGTT against Il13ra1, the z-score was inactive: -0.122.
Turning to GUUUGCCAGAACUCUGAAATT against Lyz2, the z-score is inactive: -0.303.
In the case of GCCGUAUCACCCUAAACUATT against Pxylp1, the z-score was active: 2.05.
To CCCUGCUCUCACUUGUUUATT against Olfr643 belongs inactive: -0.446; to GGAAUAUGAAGACAUAGCUTT against Ogt, inactive: -0.546.
To GGUGUUUGGGUACCAGUCUTT against Cyp8b1 belongs inactive: -1.03; to GGAACAACAUCCUAUGCUCTT against Ranbp17, inactive: 0.759; to “GGCCAGUGGAGGAAUAUGATT against 1300017J02Rik”, inactive: -0.383.
In the case of GGACUUCAGUGAGGAUCAATT against Scg5, the z-score is inactive: 0.866.
GCCAGAUCCCUGGAAUGUATT against Ece2: the z-score was inactive: -0.632.
The value for GCUACAUUCAAAUAUGACCTT against Cd207 was inactive: 0.996.
The value for GCCAUAUGAUAAUAUAGAGTT against Gbp6 was inactive: -0.574; that for GGUCAUAAGAUUAGGGUCATT against Nmnat3 was inactive: -1.61.
The value for GGCACCAAAAUCAAUGAAATT against Pcbp3 was inactive: -0.182.
On to GGAUUGUCAUUGACAAAACTT against Slc31a2, for which the z-score is inactive: -0.36.
To GGAGCUAGCAGAGAUAACCTT against Ube2e3 belongs inactive: 0.0606.
On to CCAGUACUCGUUUCACUUATT against Mrpl15, for which the z-score was inactive: 0.374.
The value for GGUGCAGAGUUACACGUGCTT against H2-T10 was inactive: 1.07; that for GGAAGUCCAAGAGAGGUUGTT against Dxo was inactive: -0.424; that for CGAAUAGGGAGCCAUAAGATT against Tubb6 was inactive: 1.66.
On to GCCAUAUCAACCGUAUUGGTT against Lzts3, for which the z-score was active: -2.58.
The value for CGGAUCAUUGCCAAUAUCATT against Adam33 was inactive: -0.48; that for GCUAUAACCUCACCGAGAATT against Tedc2 was active: 2.09.
The value for GGCCUCUCCACUUGUGAAGTT against Ghitm was inactive: 1.11; that for AAGUCUGAUUGAAGAGGAATT against Gnrh1 was inactive: 1.26; that for CCUUACCUGCCCUAGCAAUTT against Acsbg1 was inactive: -1.13.
To CCAUUAAUAUCUCAUGUGATT against Fshr belongs inactive: -0.323.
GGUGAAGUCACUAAUCUUUTT against Prpf19: the z-score was inactive: 1.12.
Consider GGAACUGGUGAUAGGAGUCTT against Olfr513, for which the z-score is inactive: -1.19.
To GGAGAAAAUCAACAAGAUCTT against Ppp2r2c belongs inactive: -0.437.
GGUGCUUUCCACGAUCAACTT against Tbl2: the z-score is inactive: -0.404.
For the sequence GGAACAGGACUUUUGAUAATT against Pan3, the z-score was inactive: -1.08.
As for GGGAGAGCAAAACUAUUUCTT against Padi6, the z-score was inactive: 0.429.
To GCAAGAAAAGGUGCUAUCUTT against Med4 belongs inactive: -0.314.
